Results: PMC6895051
Numbering of substitutions follows the chain as printed. These are yes or no findings as the source states them, for the method shown. In cells and extracts the contact can be indirect. Some entries that bind do so weakly or less than the wild type. For some of these results: Sequences can lack the tags named with a protein.

Tests used:
mRuby2-Aurora-A [1] = target: T1, mRuby2-Aurora-A (UniProt O14965); experiment: FRET or BRET; as a6, mitotic cells expressing Clover-LDHB and mRuby-Aurora-A
T1 sequence: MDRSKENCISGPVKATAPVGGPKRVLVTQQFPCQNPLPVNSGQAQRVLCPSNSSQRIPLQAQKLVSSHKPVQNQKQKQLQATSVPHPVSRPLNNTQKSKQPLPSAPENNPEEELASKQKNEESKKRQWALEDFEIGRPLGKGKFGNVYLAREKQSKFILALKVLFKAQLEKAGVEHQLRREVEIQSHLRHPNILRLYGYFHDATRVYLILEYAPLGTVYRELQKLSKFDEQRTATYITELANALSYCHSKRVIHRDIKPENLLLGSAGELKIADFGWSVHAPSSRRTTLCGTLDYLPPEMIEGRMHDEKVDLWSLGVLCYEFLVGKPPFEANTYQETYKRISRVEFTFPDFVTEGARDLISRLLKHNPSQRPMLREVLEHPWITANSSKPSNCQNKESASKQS

mRuby2-Aurora-A [2] = target: T1, mRuby2-Aurora-A; experiment: FRET or BRET; DLD1 cells transfected with Clover-LDH and mRuby2-Aurora-A, 200 μM CoCl2 for 10 h, fixed with 4% PFA; signal in the cytoplasm
FLAG-tagged Aurora-A = target: T2, FLAG-tagged Aurora-A (UniProt O14965); experiment: co-IP; FLAG-tagged Aurora-A (WT or KD) co-expressed with HA-tagged LDHA/B in 293T cells; anti-Flag M2-agarose 2 h at 4 °C, WB; also with MLN8237
T2 sequence: T1 sequence

[3] = target: T3, FLAG-tagged kinase-dead Aurora-A (D274A) (UniProt O14965); experiment: as above
T3 sequence: T1 sequence with D274A

For “Clover-LDHB (from UniProt P07195 2-334) (enzyme)”, the binding (mRuby2-Aurora-A [1]) was “no binding (condition: in mitotic cells)” and the binding (mRuby2-Aurora-A [2]) was “binds”.
“HA-tagged LDHB (from UniProt P07195 2-334) (enzyme)” was tested, and the binding (FLAG-tagged Aurora-A) was “binds” and the binding [3] was “binds”.
